From doi:10.1101/2021.06.28.450115 come the findings set out here.

These are yes or no findings as the source states them, for the method shown. In cells and extracts the contact can be indirect.

The target in the experiment is Flag-tagged TP53 (exogenous wild-type p53, HEK293T) (UniProt P04637). Nature of the experiment: co-IP.

B1: exogenous DAB2IP (HEK293T) (protein, UniProt Q5VWQ8 1-1189)
chain: MSAGGSARKSTGRSSYYYRLLRRPRLQRQRSRSRSRTRPARESPQERPGSRRSLPGSLSEKSPSMEPSAATPFRVTGFLSRRLKGSIKRTKSQPKLDRNHSFRHILPGFRSAAAAAADNERSHLMPRLKESRSHESLLSPSSAVEALDLSMEEEVVIKPVHSSILGQDYCFEVTTSSGSKCFSCRSAAERDKWMENLRRAVHPNKDNSRRVEHILKLWVIEAKDLPAKKKYLCELCLDDVLYARTTGKLKTDNVFWGEHFEFHNLPPLRTVTVHLYRETDKKKKKERNSYLGLVSLPAASVAGRQFVEKWYPVVTPNPKGGKGPGPMIRIKARYQTITILPMEMYKEFAEHITNHYLGLCAALEPILSAKTKEEMASALVHILQSTGKVKDFLTDLMMSEVDRCGDNEHLIFRENTLATKAIEEYLKLVGQKYLQDALGEFIKALYESDENCEVDPSKCSAADLPEHQGNLKMCCELAFCKIINSYCVFPRELKEVFASWRQECSSRGRPDISERLISASLFLRFLCPAIMSPSLFNLLQEYPDDRTARTLTLIAKVTQNLANFAKFGSKEEYMSFMNQFLEHEWTNMQRFLLEISNPETLSNTAGFEGYIDLGRELSSLHSLLWEAVSQLEQSIVSKLGPLPRILRDVHTALSTPGSGQLPGTNDLASTPGSGSSSISAGLQKMVIENDLSGLIDFTRLPSPTPENKDLFFVTRSSGVQPSPARSSSYSEANEPDLQMANGGKSLSMVDLQDARTLDGEAGSPAGPDVLPTDGQAAAAQLVAGWPARATPVNLAGLATVRRAGQTPTTPGTSEGAPGRPQLLAPLSFQNPVYQMAAGLPLSPRGLGDSGSEGHSSLSSHSNSEELAAAAKLGSFSTAAEELARRPGELARRQMSLTEKGGQPTVPRQNSAGPQRRIDQPPPPPPPPPPAPRGRTPPNLLSTLQYPRPSSGTLASASPDWVGPSTRLRQQSSSSKGDSPELKPRAVHKQGPSPVSPNALDRTAAWLLTMNAQLLEDEGLGPDPPHRDRLRSKDELSQAEKDLAVLQDKLRISTKKLEEYETLFKCQEETTQKLVLEYQARLEEGEERLRRQQEDKDIQMKGIISRLMSVEEELKKDHAEMQAAVDSKQKIIDAQEKRIASLDAANARLMSALTQLKERYSMQARNGISPTNPTKLQITENGEFRNSSNC
On to B1, for which the binding result was “no binding”.
